# Experimental data: PubChem BioAssay AID1259277 (Sanger Institute, 2017)
# Aim: 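Kinases whose depletion works synergistically with BYL719, cetuximab or trametinib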 (follow-up of hits)
# Cell system: LS123 human colorectal cancer cells
# Reagents: single siRNA against human genes
# Treatment: anchor drug BYL719 at 1 µM, cetuximab at 5 µg/ml or trametinib at 10 nM, or DMSO vehicle only, given one day after siRNA delivery
# Measured: 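Replicate mean of viability versus control pool 2 (non-targeting), and a synergy score comparing joint viability with separate effects of anchor drug and siRNA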
# Reading the numbers: synergy score with trametinib: higher = stronger synergistic killing with trametinib; synergy score with BYL719: higher = stronger synergistic killing with BYL719; synergy score with cetuximab: higher = stronger synergistic killing with cetuximab; viability with siRNA plus trametinib: higher = more cells survive the combination; viability, siRNA with vehicle only: higher = more cells survive the knock-down
# Active means: 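Active if synergy exceeds 0.10 for any of the three drug combinations, otherwise inactive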
# Meaning of the calls: active = synergy with at least one anchor drug; inactive = no synergy with any anchor drug
# In all, the deposit lists 160 reagents; this is a part drawn at random. Over the whole deposit, 48 (30%) were called active. 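Calls refer to individual siRNAs; confirming a gene required at least two siRNAs in multiple cell lines.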 The numbers tell different reagents against one gene apart. Viability is capped at 1. The record does not give: the amount of reagent, the time to read-out.
target,siRNA no.,synergy score with trametinib,synergy score with BYL719,synergy score with cetuximab,viability with siRNA plus trametinib,"viability, siRNA with vehicle only",Outcome
MARK3 (microtubule affinity regulating kinase 3),1,0.0938,-0.0892,-0.00493,0.644,0.955,inactive
MARK3 (microtubule affinity regulating kinase 3),2,0.234,-0.0049,-0.114,0.539,1,active
MARK3 (microtubule affinity regulating kinase 3),3,0.13,-0.0321,-0.0119,0.525,0.848,active
MARK3 (microtubule affinity regulating kinase 3),4,0.181,-0.0863,-0.0563,0.37,0.713,active
PAK1 (p21 (RAC1) activated kinase 1),1,0.328,-0.198,-0.0556,0.374,0.908,active
PAK1 (p21 (RAC1) activated kinase 1),2,0.103,-0.0799,-0.0556,0.35,0.587,active
PAK1 (p21 (RAC1) activated kinase 1),3,0.0308,0.0313,-0.00702,0.616,0.837,inactive
PAK1 (p21 (RAC1) activated kinase 1),4,0.166,-0.12,-0.028,0.465,0.815,active
"PRAG1 (PEAK1 related, kinase-activating pseudokinase 1)",1,0.163,-0.0493,0.0212,0.37,0.689,active
"PRAG1 (PEAK1 related, kinase-activating pseudokinase 1)",2,0.242,0.161,-0.0883,0.406,0.838,active
"PRAG1 (PEAK1 related, kinase-activating pseudokinase 1)",3,-0.227,-0.0473,-0.111,1,1,inactive
"PRAG1 (PEAK1 related, kinase-activating pseudokinase 1)",4,-0.00096,-0.06,-0.0559,0.706,0.913,inactive
"PFKFB3 (6-phosphofructo-2-kinase/fructose-2,6-biphosphatase 3)",1,-0.0717,-0.104,-0.0141,0.644,0.741,inactive
"PFKFB3 (6-phosphofructo-2-kinase/fructose-2,6-biphosphatase 3)",2,0.144,-0.156,0.139,0.592,0.952,active
"PFKFB3 (6-phosphofructo-2-kinase/fructose-2,6-biphosphatase 3)",3,-0.104,-0.172,-0.125,0.753,0.84,inactive
"PFKFB3 (6-phosphofructo-2-kinase/fructose-2,6-biphosphatase 3)",4,0.107,-0.161,-0.0632,0.609,0.926,active
CAMK2N1 (calcium/calmodulin dependent protein kinase II inhibitor 1),1,-0.386,-0.296,-0.304,0.811,0.55,inactive
CAMK2N1 (calcium/calmodulin dependent protein kinase II inhibitor 1),2,-0.159,-0.215,-0.103,0.849,0.893,inactive
CAMK2N1 (calcium/calmodulin dependent protein kinase II inhibitor 1),3,-0.211,-0.204,-0.165,0.831,0.802,inactive
CAMK2N1 (calcium/calmodulin dependent protein kinase II inhibitor 1),4,-0.0692,-0.0611,-0.0114,0.647,0.747,inactive
CDKN2D (cyclin dependent kinase inhibitor 2D),1,0.0305,-0.166,-0.283,0.469,0.646,inactive
CDKN2D (cyclin dependent kinase inhibitor 2D),2,-0.056,-0.102,-0.124,0.515,0.594,inactive
CDKN2D (cyclin dependent kinase inhibitor 2D),3,0.0255,-0.177,-0.0205,0.728,0.974,inactive
CDKN2D (cyclin dependent kinase inhibitor 2D),4,-0.0525,-0.0732,-0.127,0.586,0.69,inactive
RPS6KA4 (ribosomal protein S6 kinase A4),1,0.0998,-0.262,-0.0431,0.469,0.735,inactive
RPS6KA4 (ribosomal protein S6 kinase A4),2,-0.0301,-0.0254,-0.0598,0.658,0.812,inactive
RPS6KA4 (ribosomal protein S6 kinase A4),3,0.175,-0.000993,0.0734,0.312,0.631,active
RPS6KA4 (ribosomal protein S6 kinase A4),4,0.0226,-0.155,0.0535,0.624,0.837,inactive
SF3B1 (splicing factor 3b subunit 1),1,-0.125,-0.0908,-0.117,0.48,0.459,inactive
SF3B1 (splicing factor 3b subunit 1),2,-0.106,-0.225,-0.0962,0.418,0.404,inactive
SF3B1 (splicing factor 3b subunit 1),3,-0.0666,-0.146,0.00436,0.52,0.587,inactive
SF3B1 (splicing factor 3b subunit 1),4,-0.00311,-0.0678,-0.0188,0.424,0.545,inactive
CHD4 (chromodomain helicase DNA binding protein 4),1,-0.123,-0.0573,-0.171,0.667,0.703,inactive
CHD4 (chromodomain helicase DNA binding protein 4),2,0.0908,-0.0247,0.102,0.514,0.782,active
CHD4 (chromodomain helicase DNA binding protein 4),3,0.212,0.0452,0.0751,0.5,0.92,active
CHD4 (chromodomain helicase DNA binding protein 4),4,0.147,-0.0505,0.0812,0.601,0.967,active
KCNH8 (potassium voltage-gated channel subfamily H member 8),1,0.182,-0.199,-0.0953,0.374,0.719,active
KCNH8 (potassium voltage-gated channel subfamily H member 8),2,0.0635,-0.2,-0.0514,0.484,0.708,inactive
KCNH8 (potassium voltage-gated channel subfamily H member 8),3,0.154,-0.205,-0.108,0.619,1,active
KCNH8 (potassium voltage-gated channel subfamily H member 8),4,0.159,0.0147,0.148,0.459,0.799,active
NR2F2 (nuclear receptor subfamily 2 group F member 2),1,0.0749,-0.175,0.0409,0.567,0.831,inactive
NR2F2 (nuclear receptor subfamily 2 group F member 2),2,0.0443,-0.165,-0.216,0.54,0.756,inactive
NR2F2 (nuclear receptor subfamily 2 group F member 2),3,0.158,-0.105,-0.0462,0.579,0.953,active
NR2F2 (nuclear receptor subfamily 2 group F member 2),4,0.212,-0.112,-0.118,0.561,1,active
PINK1 (PTEN induced kinase 1),1,0.0908,-0.131,-0.208,0.545,0.823,inactive
PINK1 (PTEN induced kinase 1),2,0.21,0.0659,-0.0418,0.563,1,active
PINK1 (PTEN induced kinase 1),3,0.0216,-0.199,-0.0883,0.496,0.67,inactive
PINK1 (PTEN induced kinase 1),4,0.203,0.0435,0.00927,0.53,0.948,active
CDK6 (cyclin dependent kinase 6),1,-0.0491,-0.0961,-0.118,0.822,1,inactive
CDK6 (cyclin dependent kinase 6),2,-0.0133,-0.228,-0.143,0.409,0.512,inactive
CDK6 (cyclin dependent kinase 6),3,0.0413,-0.165,-0.0785,0.732,1,inactive
CDK6 (cyclin dependent kinase 6),4,0.0601,-0.0668,-0.00708,0.696,0.979,inactive

Limited to “synergy score with cetuximab”, for 5 of the entries above:
MARK3 (microtubule affinity regulating kinase 3) #3	-0.0119
MARK3 (microtubule affinity regulating kinase 3) #4	-0.0563
PAK1 (p21 (RAC1) activated kinase 1) #1	-0.0556
PAK1 (p21 (RAC1) activated kinase 1) #2	-0.0556
PAK1 (p21 (RAC1) activated kinase 1) #3	-0.00702
